Our source for the binding values is PMC7524712.

These are yes or no findings as the source states them, for the method shown. For part of these data: In cells and extracts the contact can be indirect. For part of these data: A result given as binding can be weak or reduced; the word gives no strength. Where a sequence is shown, tags or fusion partners need not be part of it.

Assay [1] deals with T1, GST-vdUTPase_(201–280) (herpes simplex virus 1, strain F) (UniProt P10234).
T1 sequence: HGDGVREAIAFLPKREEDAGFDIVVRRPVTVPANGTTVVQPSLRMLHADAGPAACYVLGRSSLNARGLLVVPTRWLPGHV
Put plainly: pull-down; purified GST, GST-vdUTPase_(201–280) or GST-vdUTPase_(281–371) immobilised on glutathione-sepharose resin, purified SE-piUL49 or SE-piUL49R83L in solution, 1 h at 4 °C, washed with 0.5% NP-40 buffer; immunoblot; both purified.

In assay [2] the target is T2, vdUTPase tagged with Strep-tag (SE-vdUTPase) (herpes simplex virus 1, strain F) (UniProt P10234).
T2 sequence: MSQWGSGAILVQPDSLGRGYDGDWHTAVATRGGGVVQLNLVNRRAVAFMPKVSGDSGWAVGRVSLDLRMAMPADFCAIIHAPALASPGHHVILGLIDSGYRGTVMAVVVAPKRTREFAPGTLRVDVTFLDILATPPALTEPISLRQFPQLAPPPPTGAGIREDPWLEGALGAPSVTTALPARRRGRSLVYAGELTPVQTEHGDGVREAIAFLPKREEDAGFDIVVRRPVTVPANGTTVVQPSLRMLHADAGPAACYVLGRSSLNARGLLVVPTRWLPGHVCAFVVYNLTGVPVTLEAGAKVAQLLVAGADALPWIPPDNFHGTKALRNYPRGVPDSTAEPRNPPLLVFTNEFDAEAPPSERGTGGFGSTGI
As to the kind of experiment: co-IP; Strep-tag affinity precipitation: lysates (0.5% NP-40 buffer, 150 mM NaCl) of Vero cells infected at an MOI of 10 for 12 h, Strep-Tactin sepharose beads, 4 °C, 1.5 h; immunoblot. (A western blot detects proteins with antibodies after separation by electrophoresis.)

The target of assay [3] is GST-piUL49R83L (herpes simplex virus 1, strain F). Put plainly: pull-down; purified GST-piUL49 or GST-piUL49R83L immobilised on glutathione-sepharose resin, purified 6xHis-SUMO-vdUTPase or 6xHis-SUMO-vUNG in solution, 1 h at 4 °C, washed with 0.5% NP-40 buffer; immunoblot; both purified.

As to “SE-piUL49R83L (herpes simplex virus 1, strain F)”, in assay [1], the binding result is reported as “no binding”. With “iUL49R3/L3 mutant of piUL49 (herpes simplex virus 1, strain F)”, in assay [2], the binding result is listed as “no binding”.

As to “iUL49R7/L7 mutant of piUL49 (herpes simplex virus 1, strain F)”, in assay [2], the binding entry is given as “binds”. “iUL49R83L mutant of piUL49 (herpes simplex virus 1, strain F)”: the binding entry in assay [2] was “no binding”. In the case of “iUL49R6H1/L7 mutant of piUL49 (herpes simplex virus 1, strain F)”, the binding result in assay [2] was “no binding”.

B1: 6xHis-SUMO-vdUTPase (enzyme, UniProt P10234 1-371)
chain: MSQWGSGAILVQPDSLGRGYDGDWHTAVATRGGGVVQLNLVNRRAVAFMPKVSGDSGWAVGRVSLDLRMAMPADFCAIIHAPALASPGHHVILGLIDSGYRGTVMAVVVAPKRTREFAPGTLRVDVTFLDILATPPALTEPISLRQFPQLAPPPPTGAGIREDPWLEGALGAPSVTTALPARRRGRSLVYAGELTPVQTEHGDGVREAIAFLPKREEDAGFDIVVRRPVTVPANGTTVVQPSLRMLHADAGPAACYVLGRSSLNARGLLVVPTRWLPGHVCAFVVYNLTGVPVTLEAGAKVAQLLVAGADALPWIPPDNFHGTKALRNYPRGVPDSTAEPRNPPLLVFTNEFDAEAPPSERGTGGFGSTGI
Regarding B1, in assay [3], the binding entry was “no binding”.
